Our source for the isolated mass and isolated yield values is patent publication US20110172147A1 (priority 2009, published 2011).

One data set in a line: general procedure: Fmoc solid-phase peptide synthesis; Rink Amide Resin; HBTU and DIC preferred, with HOBt. The note with it: whole synthesis, scale 0.25 mmol, 1:3 TFA.
Substance “Eicosanoyl-Glu-Glu-Ile-Lys[CH3—(OCH2CH2)23—O—(CH2)2—CO]-Pqa-Arg-His-Tyr-His-Asn-Trp-Val-Thr-Arg-Gln-Arg-Tyr-NH2 1:3 TFA” yielded an isolated mass of 490 mg and an isolated yield of 70%.

A further data set can be described thus: general procedure: Fmoc solid-phase peptide synthesis; Fmoc-Linker-BHA resin (Rink linker); Rink Amide Resin; HBTU and DIC preferred, with HOBt. The following applies: whole synthesis, scale 0.22 mmol, 1:2 TFA.
For the substance “Eicosanoyl-Glu-Glu-Ile-Lys[CH3—(OCH2CH2)15—O—(CH2)2—CO]-Pqa-Cit-His-Tyr-Leu-Asn-Trp-Val-Thr-Arg-Gln-(NMe)-Arg-Tyr-NH2 1:2 TFA”, the isolated mass was determined as 32 mg and the isolated yield amounted to 5%.

Substance “Eicosanoyl-Glu-Glu-Ile-Lys[CH3—(OCH2CH2)23—O—(CH2)2—CO]-Pqa-Cit-His-Tyr-Leu-Asn-Trp-Val-Thr-Arg-Gln-(NMe)-Arg-Tyr-NH2 1:2 TFA” came in with an isolated mass of 49 mg and an isolated yield of 6%.

Turning to “Eicosanoyl-gammaGlu-gammaGlu-Ile-Lys[CH3—(OCH2CH2)23—O—(CH2)2—CO]-Pqa-Cit-His-Tyr-Leu-Asn-Trp-Val-Thr-Arg-Gln-(NMe)-Arg-Tyr-NH2 1:2 TFA”, the isolated mass was determined as 81 mg and the isolated yield came out at 11%.

Take “Lauroyl-6Ahx-Ile-Lys[CH3—(OCH2CH2)23—O—(CH2)2—CO]-Pqa-Cit-His-Tyr-Leu-Asn-Trp-Val-Thr-Arg-Gln-(NMe)-Arg-Tyr-NH2 1:2 TFA”: the isolated mass is recorded as 63 mg and the isolated yield is 9%.

“Myristoyl-6Ahx-Ile-Lys[CH3—(OCH2CH2)23—O—(CH2)2—CO]-Pqa-Cit-His-Tyr-Leu-Asn-Trp-Val-Thr-Arg-Gln-(NMe)-Arg-Tyr-NH2 1:2 TFA” had an isolated mass of 43 mg and an isolated yield of 6%.

For the substance “Palmitoyl-6Ahx-Ile-Lys[CH3—(OCH2CH2)7—O—(CH2)2—CO]-Pqa-Cit-His-Tyr-Leu-Asn-Trp-Val-Thr-Arg-Gln-(NMe)-Arg-Tyr-NH2 1:2 TFA”, the isolated mass is 73 mg and the isolated yield was 12%.

Regarding “Palmitoyl-6Ahx-Ile-Lys[CH3—(OCH2CH2)11—O—(CH2)2—CO]-Pqa-Cit-His-Tyr-Leu-Asn-Trp-Val-Thr-Arg-Gln-(NMe)-Arg-Tyr-NH2 1:2 TFA”, the isolated mass is 46 mg and the isolated yield stood at 16%.

In turn, “Palmitoyl-6Ahx-Ile-Lys[CH3—(OCH2CH2)15—O—(CH2)2—CO]-Pqa-Cit-His-Tyr-Leu-Asn-Trp-Val-Thr-Arg-Gln-(NMe)-Arg-Tyr-NH2 1:2 TFA” displayed an isolated mass of 32 mg and an isolated yield of 5%.

The same data set, now with this note: whole synthesis, scale 0.22 mmol, 1:3 TFA.
Turning to “Eicosanoyl-Glu-Glu-Ile-Lys[CH3—(OCH2CH2)23—O—(CH2)2—CO]-Pqa-Arg-His-Tyr-Leu-Asn-Trp-Val-Thr-Arg-Gln-(NMe)-Arg-Tyr-NH2 1:3 TFA”, the isolated mass turned out to be 53 mg and the isolated yield amounted to 7%.

For the substance “Eicosanoyl-gammaGlu-gammaGlu-Ile-Lys[CH3—(OCH2CH2)11—O—(CH2)2—CO]-Pqa-Arg-His-Tyr-Leu-Asn-Trp-Val-Thr-Arg-Gln-(NMe)-Arg-Tyr-NH2 1:3 TFA”, the isolated mass is given as 86 mg and the isolated yield turned out to be 13%.

On to “Eicosanoyl-gammaGlu-gammaGlu-Ile-Lys[CH3—(OCH2CH2)15—O—(CH2)2—CO]-Pqa-Arg-His-Tyr-Leu-Asn-Trp-Val-Thr-Arg-Gln-(NMe)-Arg-Tyr-NH2 1:3 TFA”, for which the isolated mass is recorded as 42 mg and the isolated yield is listed as 6%.

“Eicosanoyl-gammaGlu-gammaGlu-Ile-Lys[CH3—(OCH2CH2)23—O—(CH2)2—CO]-Pqa-Arg-His-Tyr-Leu-Asn-Trp-Val-Thr-Arg-Gln-(NMe)-Arg-Tyr-NH2 1:3 TFA”: the isolated mass is recorded as 33 mg and the isolated yield is given as 4%.

“Palmitoyl-6Ahx-6Ahx-(D)alloIle-Lys[CH3—(OCH2CH2)23—O—(CH2)2—CO]-Pqa-Arg-His-Tyr-Leu-Asn-Trp-Val-Thr-Arg-Gln-(NMe)-Arg-Tyr-NH2 1:3 TFA” displayed an isolated mass of 85 mg and an isolated yield of 11%.

For the substance “Palmitoyl-6Ahx-6Ahx-Ile-Lys[CH3—(OCH2CH2)11—O—(CH2)2—CO]-Pqa-Arg-His-Tyr-Leu-Asn-Trp-Val-Thr-Arg-Gln-(NMe)-Arg-Tyr-NH2 1:3 TFA”, the isolated mass stood at 100 mg and the isolated yield is reported as 15%.

Substance “Palmitoyl-6Ahx-6Ahx-Ile-Lys[CH3—(OCH2CH2)15—O—(CH2)2—CO]-Pqa-Arg-His-Tyr-Leu-Asn-Trp-Val-Thr-Arg-Gln-(NMe)-Arg-Tyr-NH2 1:3 TFA” came in with an isolated mass of 54 mg and an isolated yield of 8%.

As to “Palmitoyl-6Ahx-6Ahx-Ile-Lys[CH3—(OCH2CH2)23—O—(CH2)2—CO]-Pqa-Arg-His-Tyr-Leu-Asn-Trp-Val-Thr-Arg-Gln-(NMe)-Arg-Tyr-NH2 1:3 TFA”, the isolated mass is 56 mg and the isolated yield amounted to 7%.

In turn, “Palmitoyl-6Ahx-Ile-Lys[CH3—(OCH2CH2)23—O—(CH2)2—CO]-Pqa-Arg-His-Tyr-Leu-Asn-Trp-Val-Thr-Arg-Gln-(NMe)-Arg-Tyr-NH2 1:3 TFA” displayed an isolated mass of 66 mg and an isolated yield of 9%.

In turn, “Palmitoyl-6Ahx-NH—CH2CH2—(OCH2CH2)23—O—(CH2)2—CO-Ile-Lys-Pqa-Arg-His-Tyr-Leu-Asn-Trp-Val-Thr-Arg-Gln-(NMe)-Arg-Tyr-NH2 1:3 TFA” yielded an isolated mass of 55 mg and an isolated yield of 7%.

The same data set, now with this note: whole synthesis, scale 0.25 mmol, 1:2 TFA.
Regarding “Eicosanoyl-Glu-Glu-Ile-Lys[CH3—(OCH2CH2)23—O—(CH2)2—CO]-Pqa-Cit-His-Tyr-Leu-Asn-Trp-C-alphaMeVal-Thr-Arg-Gln-(NMe)-Arg-Tyr-NH2 1:2 TFA”, the isolated mass is 70 mg and the isolated yield is given as 9%.

The substance “Eicosanoyl-Glu-Glu-Ile-Lys[CH3—(OCH2CH2)23—O—(CH2)2—CO]-Pqa-Cit-His-Tyr-Leu-Asn-Trp-Val-Thr-Arg(CO)-Gln-(NMe)-Arg-Tyr-NH2 1:2 TFA” had an isolated mass of 54 mg and an isolated yield of 7%.
